Measured values from paper PMC7670567.

What follows are molecules tested against HCLS1-associated protein X-1 (HAX1), endogenous (human (endogenous in HeLa and MCF7)) (UniProt O00165) (assay: affinity purification with mass spectrometry; MCF7 lysate (150 mM NaCl, 20 mM Tris/HCl pH 7.4, 0.75% Nonidet-P40); endogenous HAX1 precipitated with anti-HAX1 rabbit polyclonal antibody on Dynabeads protein A, overnight, 4°C; control: IgG; LC-MS/MS).

| binding | Molecule |
| --- | --- |
| binds | SLC25A11, endogenous (protein, UniProt Q02978 1-314) MAATASAGAGGIDGKPRTSPKSVKFLFGGLAGMGATVFVQPLDLVKNRMQLSGEGAKTREYKTSFHALTSILKAEGLRGIYTGLSAGLLRQATYTTTRLGIYTVLFERLTGADGTPPGFLLKAVIGMTAGATGAFVGTPAEVALIRMTADGRLPADQRRGYKNVFNALIRITREEGVLTLWRGCIPTMARAVVVNAAQLASYSQSKQFLLDSGYFSDNILCHFCASMISGLVTTAASMPVDIAKTRIQNMRMIDGKPEYKNGLDVLFKVVRYEGFFSLWKGFTPYYARLGPHTVLTFIFLEQMNKAYKRLFLSG |
| binds | SEPT11, endogenous (protein, UniProt Q9NVA2 1-429) MAVAVGRPSNEELRNLSLSGHVGFDSLPDQLVNKSTSQGFCFNILCVGETGIGKSTLMDTLFNTKFESDPATHNEPGVRLKARSYELQESNVRLKLTIVDTVGFGDQINKDDSYKPIVEYIDAQFEAYLQEELKIKRSLFNYHDTRIHACLYFIAPTGHSLKSLDLVTMKKLDSKVNIIPIIAKADTIAKNELHKFKSKIMSELVSNGVQIYQFPTDEETVAEINATMSVHLPFAVVGSTEEVKIGNKMAKARQYPWGVVQVENENHCDFVKLREMLIRVNMEDLREQTHTRHYELYRRCKLEEMGFKDTDPDSKPFSLQETYEAKRNEFLGELQKKEEEMRQMFVMRVKEKEAELKEAEKELHEKFDLLKRTHQEEKKKVEDKKKELEEEVNNFQKKKAAAQLLQSQAQQSGAQQTKKDKDKKNASFT |
| binds | septin 2 (SEPT2), endogenous (protein, UniProt Q15019 1-361) MSKQQPTQFINPETPGYVGFANLPNQVHRKSVKKGFEFTLMVVGESGLGKSTLINSLFLTDLYPERVIPGAAEKIERTVQIEASTVEIEERGVKLRLTVVDTPGYGDAINCRDCFKTIISYIDEQFERYLHDESGLNRRHIIDNRVHCCFYFISPFGHGLKPLDVAFMKAIHNKVNIVPVIAKADTLTLKERERLKKRILDEIEEHNIKIYHLPDAESDEDEDFKEQTRLLKASIPFSVVGSNQLIEAKGKKVRGRLYPWGVVEVENPEHNDFLKLRTMLITHMQDLQEVTQDLHYENFRSERLKRGGRKVENEDMNKDQILLEKEAELRRMQEMIARMQAQMQMQMQGGDGDGGALGHHV |
| binds | SEPT8, endogenous (protein, UniProt Q92599 1-483) MAATDLERFSNAEPEPRSLSLGGHVGFDSLPDQLVSKSVTQGFSFNILCVGETGIGKSTLMNTLFNTTFETEEASHHEACVRLRPQTYDLQESNVQLKLTIVDAVGFGDQINKDESYRPIVDYIDAQFENYLQEELKIRRSLFDYHDTRIHVCLYFITPTGHSLKSLDLVTMKKLDSKVNIIPIIAKADTISKSELHKFKIKIMGELVSNGVQIYQFPTDDEAVAEINAVMNAHLPFAVVGSTEEVKVGNKLVRARQYPWGVVQVENENHCDFVKLREMLIRVNMEDLREQTHSRHYELYRRCKLEEMGFQDSDGDSQPFSLQETYEAKRKEFLSELQRKEEEMRQMFVNKVKETELELKEKERELHEKFEHLKRVHQEEKRKVEEKRRELEEETNAFNRRKAAVEALQSQALHATSQQPLRKDKDKKNRSDIGAHQPGMSLSSSKVMMTKASVEPLNCSSWWPAIQCCSCLVRDATWREGFL |
| binds | SLC25A13, endogenous (protein, UniProt Q9UJS0 1-675) MAAAKVALTKRADPAELRTIFLKYASIEKNGEFFMSPNDFVTRYLNIFGESQPNPKTVELLSGVVDQTKDGLISFQEFVAFESVLCAPDALFMVAFQLFDKAGKGEVTFEDVKQVFGQTTIHQHIPFNWDSEFVQLHFGKERKRHLTYAEFTQFLLEIQLEHAKQAFVQRDNARTGRVTAIDFRDIMVTIRPHVLTPFVEECLVAAAGGTTSHQVSFSYFNGFNSLLNNMELIRKIYSTLAGTRKDVEVTKEEFVLAAQKFGQVTPMEVDILFQLADLYEPRGRMTLADIERIAPLEEGTLPFNLAEAQRQKASGDSARPVLLQVAESAYRFGLGSVAGAVGATAVYPIDLVKTRMQNQRSTGSFVGELMYKNSFDCFKKVLRYEGFFGLYRGLLPQLLGVAPEKAIKLTVNDFVRDKFMHKDGSVPLAAEILAGGCAGGSQVIFTNPLEIVKIRLQVAGEITTGPRVSALSVVRDLGFFGIYKGAKACFLRDIPFSAIYFPCYAHVKASFANEDGQVSPGSLLLAGAIAGMPAASLVTPADVIKTRLQVAARAGQTTYSGVIDCFRKILREEGPKALWKGAGARVFRSSPQFGVTLLTYELLQRWFYIDFGGVKPMGSEPVPKSRINLPAPNPDHVGGYKLAVATFAGIENKFGLYLPLFKPSVSTSKAIGGGP |
| binds | SEPT5, endogenous (protein, UniProt Q99719 1-369) MSTGLRYKSKLATPEDKQDIDKQYVGFATLPNQVHRKSVKKGFDFTLMVAGESGLGKSTLVHSLFLTDLYKDRKLLSAEERISQTVEILKHTVDIEEKGVKLKLTIVDTPGFGDAVNNTECWKPITDYVDQQFEQYFRDESGLNRKNIQDNRVHCCLYFISPFGHGLRPVDVGFMKALHEKVNIVPLIAKADCLVPSEIRKLKERIREEIDKFGIHVYQFPECDSDEDEDFKQQDRELKESAPFAVIGSNTVVEAKGQRVRGRLYPWGIVEVENQAHCDFVKLRNMLIRTHMHDLKDVTCDVHYENYRAHCIQQMTSKLTQDSRMESPIPILPLPTPDAETEKLIRMKDEELRRMQEMLQRMKQQMQDQ |

What follows are molecules tested against HCLS1-associated protein X-1 (HAX1), endogenous (human (endogenous in HeLa and MCF7)) (UniProt O00165) (assay: affinity purification with mass spectrometry; HeLa lysate (150 mM NaCl, 20 mM Tris/HCl pH 7.4, 0.75% Nonidet-P40); endogenous HAX1 precipitated with anti-HAX1 rabbit polyclonal antibody on Dynabeads protein A, overnight, 4°C; controls: IgG and HAX1 KO cells; LC-MS/MS).

| binding | Molecule |
| --- | --- |
| binds | SLC25A10, endogenous (protein, UniProt Q9UBX3 1-287) MAAEARVSRWYFGGLASCGAACCTHPLDLLKVHLQTQQEVKLRMTGMALRVVRTDGILALYSGLSASLCRQMTYSLTRFAIYETVRDRVAKGSQGPLPFHEKVLLGSVSGLAGGFVGTPADLVNVRMQNDVKLPQGQRRNYAHALDGLYRVAREEGLRRLFSGATMASSRGALVTVGQLSCYDQAKQLVLSTGYLSDNIFTHFVASFIAGGCATFLCQPLDVLKTRLMNSKGEYQGVFHCAVETAKLGPLAFYKGLVPAGIRLIPHTVLTFVFLEQLRKNFGIKVPS |
| binds | carbamoyl phosphate synthetase (CPS1), endogenous (protein, UniProt P31327 39-1500) LSVKAQTAHIVLEDGTKMKGYSFGHPSSVAGEVVFNTGLGGYPEAITDPAYKGQILTMANPIIGNGGAPDTTALDELGLSKYLESNGIKVSGLLVLDYSKDYNHWLATKSLGQWLQEEKVPAIYGVDTRMLTKIIRDKGTMLGKIEFEGQPVDFVDPNKQNLIAEVSTKDVKVYGKGNPTKVVAVDCGIKNNVIRLLVKRGAEVHLVPWNHDFTKMEYDGILIAGGPGNPALAEPLIQNVRKILESDRKEPLFGISTGNLITGLAAGAKTYKMSMANRGQNQPVLNITNKQAFITAQNHGYALDNTLPAGWKPLFVNVNDQTNEGIMHESKPFFAVQFHPEVTPGPIDTEYLFDSFFSLIKKGKATTITSVLPKPALVASRVEVSKVLILGSGGLSIGQAGEFDYSGSQAVKAMKEENVKTVLMNPNIASVQTNEVGLKQADTVYFLPITPQFVTEVIKAEQPDGLILGMGGQTALNCGVELFKRGVLKEYGVKVLGTSVESIMATEDRQLFSDKLNEINEKIAPSFAVESIEDALKAADTIGYPVMIRSAYALGGLGSGICPNRETLMDLSTKAFAMTNQILVEKSVTGWKEIEYEVVRDADDNCVTVCNMENVDAMGVHTGDSVVVAPAQTLSNAEFQMLRRTSINVVRHLGIVGECNIQFALHPTSMEYCIIEVNARLSRSSALASKATGYPLAFIAAKIALGIPLPEIKNVVSGKTSACFEPSLDYMVTKIPRWDLDRFHGTSSRIGSSMKSVGEVMAIGRTFEESFQKALRMCHPSIEGFTPRLPMNKEWPSNLDLRKELSEPSSTRIYAIAKAIDDNMSLDEIEKLTYIDKWFLYKMRDILNMEKTLKGLNSESMTEETLKRAKEIGFSDKQISKCLGLTEAQTRELRLKKNIHPWVKQIDTLAAEYPSVTNYLYVTYNGQEHDVNFDDHGMMVLGCGPYHIGSSVEFDWCAVSSIRTLRQLGKKTVVVNCNPETVSTDFDECDKLYFEELSLERILDIYHQEACGGCIISVGGQIPNNLAVPLYKNGVKIMGTSPLQIDRAEDRSIFSAVLDELKVAQAPWKAVNTLNEALEFAKSVDYPCLLRPSYVLSGSAMNVVFSEDEMKKFLEEATRVSQEHPVVLTKFVEGAREVEMDAVGKDGRVISHAISEHVEDAGVHSGDATLMLPTQTISQGAIEKVKDATRKIAKAFAISGPFNVQFLVKGNDVLVIECNLRASRSFPFVSKTLGVDFIDVATKVMIGENVDEKHLPTLDHPIIPADYVAIKAPMFSWPRLRDADPILRCEMASTGEVACFGEGIHTAFLKAMLSTGFKIPQKGILIGIQQSFRPRFLGVAEQLHNEGFKLFATEATSDWLNANNVPATPVAWPSQEGQNPSLSSIRKLIRDGSIDLVINLPNNNTKFVHDNYVIRRTAVDSGIPLLTNFQVTKLFAEAVQKSRKVDSKSLFHYRQYSAGKAA |
| binds | NNT, endogenous (protein, UniProt Q13423 44-1086) CKAPVKPGIPYKQLTVGVPKEIFQNEKRVALSPAGVQNLVKQGFNVVVESGAGEASKFSDDHYRVAGAQIQGAKEVLASDLVVKVRAPMVNPTLGVHEADLLKTSGTLISFIYPAQNPELLNKLSQRKTTVLAMDQVPRVTIAQGYDALSSMANIAGYKAVVLAANHFGRFFTGQITAAGKVPPAKILIVGGGVAGLASAGAAKSMGAIVRGFDTRAAALEQFKSLGAEPLEVDLKESGEGQGGYAKEMSKEFIEAEMKLFAQQCKEVDILISTALIPGKKAPVLFNKEMIESMKEGSVVVDLAAEAGGNFETTKPGELYIHKGITHIGYTDLPSRMATQASTLYSNNITKLLKAISPDKDNFYFDVKDDFDFGTMGHVIRGTVVMKDGKVIFPAPTPKNIPQGAPVKQKTVAELEAEKAATITPFRKTMSTASAYTAGLTGILGLGIAAPNLAFSQMVTTFGLAGIVGYHTVWGVTPALHSPLMSVTNAISGLTAVGGLALMGGHLYPSTTSQGLAALAAFISSVNIAGGFLVTQRMLDMFKRPTDPPEYNYLYLLPAGTFVGGYLAALYSGYNIEQIMYLGSGLCCVGALAGLSTQGTARLGNALGMIGVAGGLAATLGVLKPGPELLAQMSGAMALGGTIGLTIAKRIQISDLPQLVAAFHSLVGLAAVLTCIAEYIIEYPHFATDAAANLTKIVAYLGTYIGGVTFSGSLIAYGKLQGLLKSAPLLLPGRHLLNAGLLAASVGGIIPFMVDPSFTTGITCLGSVSALSAVMGVTLTAAIGGADMPVVITVLNSYSGWALCAEGFLLNNNLLTIVGALIGSSGAILSYIMCVAMNRSLANVILGGYGTTSTAGGKPMEISGTHTEINLDNAIDMIREANSIIITPGYGLCAAKAQYPIADLVKMLTEQGKKVRFGIHPVAGRMPGQLNVLLAEAGVPYDIVLEMDEINHDFPDTDLVLVIGANDTVNSAAQEDPNSIIAGMPVLEVWKSKQVIVMKRSLGVGYAAVDNPIFYKPNTAMLLGDAKKTCDALQAKVRESYQK |
| binds | SLC25A13, endogenous (protein, UniProt Q9UJS0 1-675) MAAAKVALTKRADPAELRTIFLKYASIEKNGEFFMSPNDFVTRYLNIFGESQPNPKTVELLSGVVDQTKDGLISFQEFVAFESVLCAPDALFMVAFQLFDKAGKGEVTFEDVKQVFGQTTIHQHIPFNWDSEFVQLHFGKERKRHLTYAEFTQFLLEIQLEHAKQAFVQRDNARTGRVTAIDFRDIMVTIRPHVLTPFVEECLVAAAGGTTSHQVSFSYFNGFNSLLNNMELIRKIYSTLAGTRKDVEVTKEEFVLAAQKFGQVTPMEVDILFQLADLYEPRGRMTLADIERIAPLEEGTLPFNLAEAQRQKASGDSARPVLLQVAESAYRFGLGSVAGAVGATAVYPIDLVKTRMQNQRSTGSFVGELMYKNSFDCFKKVLRYEGFFGLYRGLLPQLLGVAPEKAIKLTVNDFVRDKFMHKDGSVPLAAEILAGGCAGGSQVIFTNPLEIVKIRLQVAGEITTGPRVSALSVVRDLGFFGIYKGAKACFLRDIPFSAIYFPCYAHVKASFANEDGQVSPGSLLLAGAIAGMPAASLVTPADVIKTRLQVAARAGQTTYSGVIDCFRKILREEGPKALWKGAGARVFRSSPQFGVTLLTYELLQRWFYIDFGGVKPMGSEPVPKSRINLPAPNPDHVGGYKLAVATFAGIENKFGLYLPLFKPSVSTSKAIGGGP |

Target: HCLS1-associated protein X-1 (HAX1), endogenous (human (endogenous in HeLa and MCF7)) (UniProt O00165)
Test: affinity purification with mass spectrometry; MCF7 lysate (150 mM NaCl, 20 mM Tris/HCl pH 7.4, 0.75% Nonidet-P40); endogenous HAX1 precipitated with anti-HAX1 rabbit polyclonal antibody on Dynabeads protein A, overnight, 4°C; control: IgG; LC-MS/MS
Remark: another data set of the same source

| binding | Molecule |
| --- | --- |
| binds | sequestosome (SQSTM1), endogenous (from UniProt Q13501 1-440) |

No constants are given. Whether binding was seen depends on the method and setting. In cells and extracts the contact can be indirect. These calls come from enrichment with a bait or labelling near it, and not all partners need be listed.
